Patent US7368293 (ROCKEFELLER UNIVERSITY, dated 2008)
No constants are given. Whether binding was seen depends on the method and setting. Some binding calls cover weakened binding; strength is not graded here.

What was measured:
[1] = target: T1, HNF-4 truncated protein translated in vitro from Hga I-cut pf7 template (cut at nucleotide 1171) (rat) (UniProt P22449); test: co-translation in vitro, gel mobility-shift (FIG. 5D)
T1 sequence: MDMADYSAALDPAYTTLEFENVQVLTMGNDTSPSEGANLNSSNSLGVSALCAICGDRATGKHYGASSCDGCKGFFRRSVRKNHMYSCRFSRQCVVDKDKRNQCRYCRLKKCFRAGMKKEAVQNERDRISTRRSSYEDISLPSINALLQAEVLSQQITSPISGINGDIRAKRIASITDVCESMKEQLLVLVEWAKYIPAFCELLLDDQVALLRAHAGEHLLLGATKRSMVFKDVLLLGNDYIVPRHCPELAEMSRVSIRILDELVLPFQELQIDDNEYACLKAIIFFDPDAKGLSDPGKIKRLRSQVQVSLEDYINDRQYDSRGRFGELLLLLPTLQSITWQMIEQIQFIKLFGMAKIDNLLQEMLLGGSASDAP

[2] = target: T2, HNF-4 truncated protein translated in vitro from PflM I-cut pf7 template (cut at nucleotide 1309) (rat) (UniProt P22449); test: as above
T2 sequence: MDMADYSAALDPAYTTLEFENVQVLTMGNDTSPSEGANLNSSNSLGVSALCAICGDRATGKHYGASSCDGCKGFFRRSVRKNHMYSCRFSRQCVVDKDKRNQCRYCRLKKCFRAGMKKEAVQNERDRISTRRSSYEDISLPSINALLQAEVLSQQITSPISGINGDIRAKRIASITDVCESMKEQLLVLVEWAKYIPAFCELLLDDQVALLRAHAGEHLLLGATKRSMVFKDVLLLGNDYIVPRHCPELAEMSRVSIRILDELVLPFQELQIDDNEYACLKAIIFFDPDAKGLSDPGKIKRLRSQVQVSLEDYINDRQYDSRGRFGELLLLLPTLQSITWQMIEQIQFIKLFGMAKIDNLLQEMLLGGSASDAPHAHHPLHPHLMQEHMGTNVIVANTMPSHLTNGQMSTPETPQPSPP

[3] = target: T1, HNF-4 truncated protein translated in vitro from Hga I-cut pf7 template (cut at nucleotide 1171) (rat); test: co-translation in vitro (reticulocyte lysate), gel mobility-shift with 32P APF-1 probe; complexes of intermediate mobility
[4] = target: T2, HNF-4 truncated protein translated in vitro from PflM I-cut pf7 template (cut at nucleotide 1309) (rat); test: as above

Measured: binding

B1: HNF-4 (hepatocyte nuclear factor 4), full length protein translated in vitro from pf7 cDNA (Xho I-cut template) (receptor)
chain: MDMADYSAALDPAYTTLEFENVQVLTMGNDTSPSEGANLNSSNSLGVSALCAICGDRATGKHYGASSCDGCKGFFRRSVRKNHMYSCRFSRQCVVDKDKRNQCRYCRLKKCFRAGMKKEAVQNERDRISTRRSSYEDISLPSINALLQAEVLSQQITSPISGINGDIRAKRIASITDVCESMKEQLLVLVEWAKYIPAFCELLLDDQVALLRAHAGEHLLLGATKRSMVFKDVLLLGNDYIVPRHCPELAEMSRVSIRILDELVLPFQELQIDDNEYACLKAIIFFDPDAKGLSDPGKIKRLRSQVQVSLEDYINDRQYDSRGRFGELLLLLPTLQSITWQMIEQIQFIKLFGMAKIDNLLQEMLLGGSASDAPHAHHPLHPHLMQEHMGTNVIVANTMPSHLTNGQMSTPETPQPSPPSGSGSESYKLLPGAITTIVKPPSAIPQPTITKQEAI
notes: Translated in rabbit reticulocyte lysate from T3/T7 transcripts of pf7 (rat liver cDNA); also called full length cDNA (Xho I); in vitro synthesized HNF-4
binds: [1] | [2] | [3] | [4]
